Measured data: PubChem BioAssay AID1508597 (Cure First, 2020)

Aim: 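Knock-downs altering ovarian cancer cell survival with or without PARP inhibitor rucaparib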 (primary screen)
Cell system: human ovarian carcinoma lines grown from tumours: OCI-P5x (papillary serous) and OCI-C5x (clear cell)
Reagent: siRNA pool against human genes, 1.25 pmol siRNA per well
Timing: 72 h or 96 h, depending on the cell culture
Challenge: rucaparib 20 µM (about IC30) or vehicle, present until read-out
Rucaparib or vehicle: Rucaparib
Cell line: OCI-C5x (clear cell)
Read-out: 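ATP luminescence measured at 72 or 96 h according to the culture, then normalised and expressed as percent viability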
Reading the numbers: viability, normalised: higher = more viable cells remaining
Call rule: 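a well counts as a hit if its normalised viability is under 80 percent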
Calls: active = viability under 80%; inactive = viability 80% or more
This is an unselected part of the about 2,100 reagents, under one of the conditions tested. 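Calls flag viability under 80% in either arm, not effects specific to rucaparib; the reference for percent is not stated.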 Unmarked entries are inactive. A reagent listed more than once was tested more than once; the source does not tell the runs apart. Not given: the 100% reference.

gene symbol | technical replicate | viability, normalised (%)
SMC4 (structural maintenance of chromosomes 4) | 1 | 47.1 (active)
SMC4 (structural maintenance of chromosomes 4) | 2 | 40.4 (active)
SMC4 (structural maintenance of chromosomes 4) | 3 | 45.6 (active)
FOXS1 (forkhead box S1) | 1 | 51.2 (active)
FOXS1 (forkhead box S1) | 2 | 48.3 (active)
FOXS1 (forkhead box S1) | 3 | 43.9 (active)
PRDM6 (PR/SET domain 6) | 1 | 61.2 (active)
PRDM6 (PR/SET domain 6) | 2 | 43.3 (active)
PRDM6 (PR/SET domain 6) | 3 | 46.5 (active)
MLLT1 (MLLT1 super elongation complex subunit) | 1 | 57.4 (active)
MLLT1 (MLLT1 super elongation complex subunit) | 2 | 71 (active)
MLLT1 (MLLT1 super elongation complex subunit) | 3 | 67.8 (active)
RPS6KB1 (ribosomal protein S6 kinase B1) | 1 | 35.4 (active)
RPS6KB1 (ribosomal protein S6 kinase B1) | 1 | 38.6 (active)
RPS6KB1 (ribosomal protein S6 kinase B1) | 2 | 57.8 (active)
RPS6KB1 (ribosomal protein S6 kinase B1) | 2 | 38.1 (active)
RPS6KB1 (ribosomal protein S6 kinase B1) | 3 | 43.3 (active)
RPS6KB1 (ribosomal protein S6 kinase B1) | 3 | 37.8 (active)
DDX19B (DEAD-box helicase 19B) | 1 | 52.9 (active)
DDX19B (DEAD-box helicase 19B) | 2 | 64.7 (active)
DDX19B (DEAD-box helicase 19B) | 3 | 47.7 (active)

Records above whose gene name begins with F or f:
gene symbol | technical replicate | viability, normalised (%)
FOXS1 (forkhead box S1) | 1 | 51.2 (active)
FOXS1 (forkhead box S1) | 2 | 48.3 (active)
FOXS1 (forkhead box S1) | 3 | 43.9 (active)

Additional reagents follow:
gene symbol | technical replicate | viability, normalised (%)
OXSM (3-oxoacyl-ACP synthase, mitochondrial) | 1 | 56.4 (active)
OXSM (3-oxoacyl-ACP synthase, mitochondrial) | 2 | 57.3 (active)
OXSM (3-oxoacyl-ACP synthase, mitochondrial) | 3 | 60 (active)
DDX25 (DEAD-box helicase 25) | 1 | 52.9 (active)
DDX25 (DEAD-box helicase 25) | 2 | 41.2 (active)
DDX25 (DEAD-box helicase 25) | 3 | 36.4 (active)
CHM (CHM Rab escort protein) | 1 | 58.6 (active)
CHM (CHM Rab escort protein) | 2 | 53.2 (active)
CHM (CHM Rab escort protein) | 3 | 44.5 (active)
AMHR2 (anti-Mullerian hormone receptor type 2) | 1 | 48.5 (active)
AMHR2 (anti-Mullerian hormone receptor type 2) | 2 | 49.3 (active)
AMHR2 (anti-Mullerian hormone receptor type 2) | 3 | 38.7 (active)
EHMT2 (euchromatic histone lysine methyltransferase 2) | 1 | 67.2 (active)
EHMT2 (euchromatic histone lysine methyltransferase 2) | 2 | 41.5 (active)
EHMT2 (euchromatic histone lysine methyltransferase 2) | 3 | 70.9 (active)
DDX4 (DEAD-box helicase 4) | 1 | 64.7 (active)
DDX4 (DEAD-box helicase 4) | 2 | 50.6 (active)
DDX4 (DEAD-box helicase 4) | 3 | 44.5 (active)
